US20140296338A1, “PROPHYLACTIC AND/OR THERAPEUTIC AGENT FOR CARDIOVASCULAR COMPLICATIONS OF DIABETES” (priority 2011, published 2014)
At least one structure is not confirmed: it was looked up by name or label, or the drawing left a doubt.

Test system: dermal fibroblast
Experiment: Influence of fatty acids on intracellular neutral lipid content of dermal fibroblast from diabetic patient, enzyme assay
Format: cell-based, human
Details: fatty acid added at 50 and 500 μM, cells collected 2 days later, versus no fatty acid (FIG. 4)
Description: With the consent of the diabetic patient in Example 3, part of dermal tissue was harvested and was then subjected to primary culture (culture medium: DMEM/10% FBS) by Explant method, followed by repeated subculture to give a cell line. The resulting dermal fibroblast was examined for the influence of various fatty acids on an intracellular neutral lipid content. Specifically, the dermal specimen harvested from the patient was subjected to an in vitro enzyme assay using various fatty acids to measure an intracellular neutral lipid content. The enzyme assay was performed using a triglyceride quantification kit (manufacturer: BioVision, Inc., product code: K622-100). […] To the patient's cells, the various fatty acids were added, and 2 days later, the cells were collected. In the figures, (-) is a specimen to which no fatty acid was added (cultured as a control in DMEM/10% FBS alone). C16:0 is palmitic acid, C18:1 is oleic acid, C18:2 is linoleic acid, C20:4 is arachidonic acid, C20:5 is eicosapentaenoic acid (EPA), C7:0 is heptanoic acid, C8:0 is caprylic acid, and C10:0 is capric acid.

## CC/C=C\C/C=C\C/C=C\C/C=C\C/C=C\CCCC(=O)O [EPA, eicosapentaenoic acid, reference compound]
  Intracellular TG (neutral lipid) content: increased
